Reference: PubChem BioAssay AID504804 (Drosophila RNAi Screening Center, 2011)
The deposit covers about 19,000 reagents; this is a random part of those with a known target gene and a result. Of all reagents, 47 (0.25%) got an active call. 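Signals are raw, not normalised; exact z-scores behind calls not deposited; actives needed confirmation, so some wells reaching 2 SD are inactive.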 No sequences are given here.

Purpose: 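Fly genes whose loss lessens doxorubicin-driven cell death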 (primary screen)
Cell system: Drosophila Kc cells
Knock-down reagent: long dsRNA against Drosophila genes, 0.5 µg dsRNA per well
Timing: 96 h (48 h knock-down, then 48 h drug)
Conditions: doxorubicin 5 µg/ml for 48 h, added 48 h after dsRNA
Measurement: 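Luminescent ATP counts per replicate, not normalised, reflecting viable cells after 48 h dsRNA knock-down followed by 48 h of 5 µg/ml doxorubicin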
Scale: raw ATP luminescence: higher = more viable cells, protection from doxorubicin
Active means: 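z-score of 2 or more over plate mean in both duplicates, retained only when retests and separate dsRNAs confirm the protection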

CG4069 → raw ATP luminescence, replicate 1: 30827; raw ATP luminescence, replicate 2: 29807; call: inactive
CG32373 → raw ATP luminescence, replicate 1: 1.93e5; raw ATP luminescence, replicate 2: 1.58e5; call: inactive
CG5697 → raw ATP luminescence, replicate 1: 62010; raw ATP luminescence, replicate 2: 68210; call: inactive
Dhc93AB (Dynein heavy chain at 93AB) → raw ATP luminescence, replicate 1: 66100; raw ATP luminescence, replicate 2: 53230; call: inactive
CG14853 → raw ATP luminescence, replicate 1: 90690; raw ATP luminescence, replicate 2: 83010; call: inactive
CG11911 → raw ATP luminescence, replicate 1: 1.15e5; raw ATP luminescence, replicate 2: 71107; call: inactive
CG6028 → raw ATP luminescence, replicate 1: 60600; raw ATP luminescence, replicate 2: 48113; call: inactive
CG11983 → raw ATP luminescence, replicate 1: 54637; raw ATP luminescence, replicate 2: 58710; call: inactive
l(3)psg2 (lethal (3) persistent salivary gland 2) → raw ATP luminescence, replicate 1: 49830; raw ATP luminescence, replicate 2: 62407; call: inactive
CG3982 → raw ATP luminescence, replicate 1: 57277; raw ATP luminescence, replicate 2: 41513; call: inactive
Gk1 (Glycerol kinase 1) → raw ATP luminescence, replicate 1: 52210; raw ATP luminescence, replicate 2: 64107; call: inactive
l(2)37Bb (lethal (2) 37Bb) → raw ATP luminescence, replicate 1: 62973; raw ATP luminescence, replicate 2: 69943; call: inactive

Records above whose gene name begins with L or l:
l(3)psg2 (lethal (3) persistent salivary gland 2) → raw ATP luminescence, replicate 1: 49830; raw ATP luminescence, replicate 2: 62407; call: inactive
l(2)37Bb (lethal (2) 37Bb) → raw ATP luminescence, replicate 1: 62973; raw ATP luminescence, replicate 2: 69943; call: inactive
